# Results taken from the supplement of paper PMC10849652.
# By UniProt entry, the sequences of proteins in these tests, tags left out. Where a name states a change or a piece, a line headed by the entry shows the natural chain unless it says otherwise.
# UniProt Q9H6R4: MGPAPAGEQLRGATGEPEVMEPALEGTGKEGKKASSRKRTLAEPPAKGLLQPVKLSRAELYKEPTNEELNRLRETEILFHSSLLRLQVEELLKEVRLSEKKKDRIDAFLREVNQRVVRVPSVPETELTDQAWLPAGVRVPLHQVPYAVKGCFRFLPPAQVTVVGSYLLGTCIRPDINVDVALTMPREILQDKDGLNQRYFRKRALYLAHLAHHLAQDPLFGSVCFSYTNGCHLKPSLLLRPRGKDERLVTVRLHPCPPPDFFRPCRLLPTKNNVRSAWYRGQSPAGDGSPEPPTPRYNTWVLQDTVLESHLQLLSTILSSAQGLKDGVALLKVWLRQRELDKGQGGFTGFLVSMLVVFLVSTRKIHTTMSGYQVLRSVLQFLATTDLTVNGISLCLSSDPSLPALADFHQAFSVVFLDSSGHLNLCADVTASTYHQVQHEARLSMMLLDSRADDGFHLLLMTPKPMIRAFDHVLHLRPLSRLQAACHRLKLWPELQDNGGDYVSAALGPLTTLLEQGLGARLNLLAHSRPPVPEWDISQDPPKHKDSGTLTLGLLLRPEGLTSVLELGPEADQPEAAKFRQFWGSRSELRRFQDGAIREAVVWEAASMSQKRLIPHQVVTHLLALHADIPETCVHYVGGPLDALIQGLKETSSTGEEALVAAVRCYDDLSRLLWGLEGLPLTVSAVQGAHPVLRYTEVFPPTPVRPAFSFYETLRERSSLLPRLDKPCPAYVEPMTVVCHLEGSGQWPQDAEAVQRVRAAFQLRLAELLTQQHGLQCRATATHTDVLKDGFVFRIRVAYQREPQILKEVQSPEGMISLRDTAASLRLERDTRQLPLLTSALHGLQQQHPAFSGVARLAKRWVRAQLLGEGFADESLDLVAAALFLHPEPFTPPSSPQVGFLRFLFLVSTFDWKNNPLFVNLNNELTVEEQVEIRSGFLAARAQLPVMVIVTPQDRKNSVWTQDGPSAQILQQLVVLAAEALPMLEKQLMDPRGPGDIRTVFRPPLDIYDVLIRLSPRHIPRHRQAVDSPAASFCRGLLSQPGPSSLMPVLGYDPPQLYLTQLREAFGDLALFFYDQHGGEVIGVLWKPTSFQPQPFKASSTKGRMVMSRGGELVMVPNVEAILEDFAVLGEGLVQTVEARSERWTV
# UniProt O60551: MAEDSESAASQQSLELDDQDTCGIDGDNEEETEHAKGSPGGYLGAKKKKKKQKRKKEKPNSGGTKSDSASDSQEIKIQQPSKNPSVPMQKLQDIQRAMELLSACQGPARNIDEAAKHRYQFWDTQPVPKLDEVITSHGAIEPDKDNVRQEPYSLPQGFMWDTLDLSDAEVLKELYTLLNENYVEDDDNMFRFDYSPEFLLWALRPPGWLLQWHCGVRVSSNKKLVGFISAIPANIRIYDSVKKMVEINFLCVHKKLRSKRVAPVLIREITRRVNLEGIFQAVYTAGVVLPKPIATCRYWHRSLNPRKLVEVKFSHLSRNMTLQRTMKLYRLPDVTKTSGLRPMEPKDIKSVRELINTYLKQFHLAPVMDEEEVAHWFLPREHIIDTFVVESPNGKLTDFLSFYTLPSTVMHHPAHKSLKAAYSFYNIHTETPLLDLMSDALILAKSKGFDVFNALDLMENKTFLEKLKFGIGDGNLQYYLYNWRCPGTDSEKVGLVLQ
# UniProt Q9Y5A7: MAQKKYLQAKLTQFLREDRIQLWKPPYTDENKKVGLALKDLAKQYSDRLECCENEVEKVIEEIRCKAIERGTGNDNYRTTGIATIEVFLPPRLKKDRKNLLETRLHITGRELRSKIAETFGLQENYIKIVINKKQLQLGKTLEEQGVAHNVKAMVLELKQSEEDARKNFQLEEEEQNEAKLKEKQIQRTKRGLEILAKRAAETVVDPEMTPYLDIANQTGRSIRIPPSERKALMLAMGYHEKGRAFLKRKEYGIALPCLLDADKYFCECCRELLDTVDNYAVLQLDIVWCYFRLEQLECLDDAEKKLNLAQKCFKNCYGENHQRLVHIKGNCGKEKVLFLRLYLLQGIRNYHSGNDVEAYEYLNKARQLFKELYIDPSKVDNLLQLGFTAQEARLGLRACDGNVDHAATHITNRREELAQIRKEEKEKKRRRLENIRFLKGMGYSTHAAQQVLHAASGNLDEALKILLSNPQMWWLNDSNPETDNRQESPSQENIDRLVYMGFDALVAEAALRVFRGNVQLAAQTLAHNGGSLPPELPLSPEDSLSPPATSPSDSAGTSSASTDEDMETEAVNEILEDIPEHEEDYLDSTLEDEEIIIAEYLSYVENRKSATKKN
# UniProt Q8IVD9: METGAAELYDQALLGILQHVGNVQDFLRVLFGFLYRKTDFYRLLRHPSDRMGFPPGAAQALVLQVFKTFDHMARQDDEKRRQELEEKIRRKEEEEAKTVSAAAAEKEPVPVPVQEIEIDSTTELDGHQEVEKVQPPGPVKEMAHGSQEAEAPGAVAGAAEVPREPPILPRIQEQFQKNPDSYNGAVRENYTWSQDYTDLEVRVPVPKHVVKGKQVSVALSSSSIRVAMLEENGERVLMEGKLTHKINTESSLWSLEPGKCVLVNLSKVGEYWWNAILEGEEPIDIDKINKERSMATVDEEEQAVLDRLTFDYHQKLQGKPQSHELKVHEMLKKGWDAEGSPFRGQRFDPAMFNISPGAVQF
# UniProt P49902: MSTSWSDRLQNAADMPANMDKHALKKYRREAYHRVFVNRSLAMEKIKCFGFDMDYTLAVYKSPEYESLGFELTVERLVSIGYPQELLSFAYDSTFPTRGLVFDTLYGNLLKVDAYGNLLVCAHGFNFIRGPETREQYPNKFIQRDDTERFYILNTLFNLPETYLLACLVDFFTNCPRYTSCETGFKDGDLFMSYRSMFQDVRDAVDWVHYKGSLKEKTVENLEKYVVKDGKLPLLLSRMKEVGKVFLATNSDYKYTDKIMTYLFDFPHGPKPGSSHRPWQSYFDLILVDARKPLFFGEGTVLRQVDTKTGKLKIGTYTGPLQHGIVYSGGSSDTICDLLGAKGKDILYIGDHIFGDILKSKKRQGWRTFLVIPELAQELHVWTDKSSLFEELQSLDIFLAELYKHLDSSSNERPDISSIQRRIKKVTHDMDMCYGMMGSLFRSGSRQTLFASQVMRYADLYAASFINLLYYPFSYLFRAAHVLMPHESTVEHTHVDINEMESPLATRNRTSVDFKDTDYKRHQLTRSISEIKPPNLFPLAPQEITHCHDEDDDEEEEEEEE
# UniProt Q9UHY1: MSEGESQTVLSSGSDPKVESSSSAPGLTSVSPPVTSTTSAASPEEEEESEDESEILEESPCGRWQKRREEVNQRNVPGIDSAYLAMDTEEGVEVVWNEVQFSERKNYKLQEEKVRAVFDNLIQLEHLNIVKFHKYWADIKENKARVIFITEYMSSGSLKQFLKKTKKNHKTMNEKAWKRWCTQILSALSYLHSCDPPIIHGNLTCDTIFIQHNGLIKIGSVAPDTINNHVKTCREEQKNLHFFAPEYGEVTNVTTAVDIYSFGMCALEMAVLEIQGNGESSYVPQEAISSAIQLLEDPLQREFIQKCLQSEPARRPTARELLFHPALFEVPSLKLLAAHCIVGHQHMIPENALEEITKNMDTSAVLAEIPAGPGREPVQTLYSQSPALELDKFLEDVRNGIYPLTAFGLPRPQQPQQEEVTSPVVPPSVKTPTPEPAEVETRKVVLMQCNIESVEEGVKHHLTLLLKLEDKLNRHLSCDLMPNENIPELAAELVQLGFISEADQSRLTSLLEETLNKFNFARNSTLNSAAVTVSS
# UniProt P22392, whole entry, looked up: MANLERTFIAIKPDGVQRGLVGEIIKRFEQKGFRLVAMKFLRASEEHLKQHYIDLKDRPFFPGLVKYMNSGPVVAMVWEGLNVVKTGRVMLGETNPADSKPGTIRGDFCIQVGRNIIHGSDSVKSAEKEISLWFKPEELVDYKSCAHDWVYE
# UniProt P55786: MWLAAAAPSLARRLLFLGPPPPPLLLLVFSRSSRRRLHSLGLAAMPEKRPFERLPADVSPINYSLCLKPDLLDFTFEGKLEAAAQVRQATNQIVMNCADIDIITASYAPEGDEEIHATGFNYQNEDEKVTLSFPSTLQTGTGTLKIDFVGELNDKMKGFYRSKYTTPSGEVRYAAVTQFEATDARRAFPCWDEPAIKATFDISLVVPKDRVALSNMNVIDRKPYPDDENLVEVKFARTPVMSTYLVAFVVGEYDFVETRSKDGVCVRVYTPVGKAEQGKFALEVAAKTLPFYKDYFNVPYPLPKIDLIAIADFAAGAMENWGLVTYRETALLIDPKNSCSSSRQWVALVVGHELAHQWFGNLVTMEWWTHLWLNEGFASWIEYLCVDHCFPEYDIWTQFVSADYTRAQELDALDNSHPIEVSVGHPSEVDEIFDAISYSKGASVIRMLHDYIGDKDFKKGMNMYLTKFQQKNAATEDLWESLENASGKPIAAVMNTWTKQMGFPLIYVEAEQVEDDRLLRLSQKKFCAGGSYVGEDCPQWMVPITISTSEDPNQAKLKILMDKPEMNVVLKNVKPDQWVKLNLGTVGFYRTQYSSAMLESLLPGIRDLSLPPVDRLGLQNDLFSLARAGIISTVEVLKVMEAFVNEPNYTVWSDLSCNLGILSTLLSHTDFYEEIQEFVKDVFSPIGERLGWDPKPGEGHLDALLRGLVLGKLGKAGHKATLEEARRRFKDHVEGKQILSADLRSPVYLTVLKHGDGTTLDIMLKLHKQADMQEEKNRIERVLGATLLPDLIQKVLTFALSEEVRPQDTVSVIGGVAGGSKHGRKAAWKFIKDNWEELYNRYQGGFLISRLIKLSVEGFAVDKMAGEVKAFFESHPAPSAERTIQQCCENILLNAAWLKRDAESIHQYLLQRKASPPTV
# UniProt Q9BRJ7: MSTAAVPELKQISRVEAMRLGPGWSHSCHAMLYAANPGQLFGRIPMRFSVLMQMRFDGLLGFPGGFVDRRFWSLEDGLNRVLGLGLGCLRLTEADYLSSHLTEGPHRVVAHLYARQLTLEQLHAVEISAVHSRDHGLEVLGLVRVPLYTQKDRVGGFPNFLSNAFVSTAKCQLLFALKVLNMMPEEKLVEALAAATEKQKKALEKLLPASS
# UniProt Q8IVI9: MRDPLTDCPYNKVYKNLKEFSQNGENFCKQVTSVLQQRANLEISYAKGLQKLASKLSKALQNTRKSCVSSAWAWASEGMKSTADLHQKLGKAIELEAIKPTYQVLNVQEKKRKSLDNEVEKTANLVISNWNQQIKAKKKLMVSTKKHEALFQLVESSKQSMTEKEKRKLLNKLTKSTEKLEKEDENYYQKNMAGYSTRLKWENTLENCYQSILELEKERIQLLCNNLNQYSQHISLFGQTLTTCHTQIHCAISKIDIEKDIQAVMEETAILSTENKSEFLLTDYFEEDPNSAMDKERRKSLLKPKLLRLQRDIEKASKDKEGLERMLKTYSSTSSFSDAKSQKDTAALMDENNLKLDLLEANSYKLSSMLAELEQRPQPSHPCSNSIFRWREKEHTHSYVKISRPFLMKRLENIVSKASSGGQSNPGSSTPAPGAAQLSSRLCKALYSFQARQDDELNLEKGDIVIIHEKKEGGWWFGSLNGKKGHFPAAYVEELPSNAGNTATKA
# UniProt Q9HBL8: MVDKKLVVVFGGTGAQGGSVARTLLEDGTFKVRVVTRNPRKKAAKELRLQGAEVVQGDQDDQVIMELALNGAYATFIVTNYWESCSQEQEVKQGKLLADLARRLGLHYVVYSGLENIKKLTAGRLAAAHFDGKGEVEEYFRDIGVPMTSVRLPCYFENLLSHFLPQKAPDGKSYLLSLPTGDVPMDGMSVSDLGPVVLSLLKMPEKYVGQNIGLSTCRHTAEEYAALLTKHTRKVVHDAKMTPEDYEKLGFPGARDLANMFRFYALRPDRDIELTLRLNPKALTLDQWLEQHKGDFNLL
# UniProt Q86UY8: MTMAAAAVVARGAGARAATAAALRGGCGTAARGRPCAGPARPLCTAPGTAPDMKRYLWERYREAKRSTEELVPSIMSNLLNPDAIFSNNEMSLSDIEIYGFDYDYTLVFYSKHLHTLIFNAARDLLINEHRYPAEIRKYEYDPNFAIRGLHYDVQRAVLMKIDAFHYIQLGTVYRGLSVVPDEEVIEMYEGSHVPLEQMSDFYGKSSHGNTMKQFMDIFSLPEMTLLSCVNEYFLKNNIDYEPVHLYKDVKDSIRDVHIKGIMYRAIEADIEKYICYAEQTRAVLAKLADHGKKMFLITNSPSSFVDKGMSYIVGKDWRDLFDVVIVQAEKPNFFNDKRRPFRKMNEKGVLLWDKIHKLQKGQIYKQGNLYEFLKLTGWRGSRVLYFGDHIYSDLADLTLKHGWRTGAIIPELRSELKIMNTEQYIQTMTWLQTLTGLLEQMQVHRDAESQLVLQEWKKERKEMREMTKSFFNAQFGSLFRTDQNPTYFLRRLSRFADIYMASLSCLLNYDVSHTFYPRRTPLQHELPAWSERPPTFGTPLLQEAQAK
# The list shows a part of the results.
# What was measured:
# Experiment in all cases: log2 fold change, soluble protein after heating vs DMSO (PISA); higher = thermal stabilisation; K562 lysate, 10 uM; active = over 0.2 and 3.5 SD of the protein, either way, in both replicates (recomputed)
# vemurafenib = compound: CCCS(=O)(=O)Nc1ccc(F)c(C(=O)c2c[nH]c3ncc(-c4ccc(Cl)cc4)cc23)c1F [vemurafenib]
# Summary of the method: (§1)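 Following dounce homogenisation of K562 pellets in PBS pH 7.4 with 1 mM MgCl2, crude extract at 1 mg/mL protein was incubated for 30 min with 10 μM compound. Aliquots were then heated for 3 min over 48°C-58°C and pooled, NP-40 was added to 0.5% at 4°C, and soluble protein was recovered as the supernatant at 21,000xg for 90 min. Channel-sum-equalised TMTpro 16plex LC-MS/MS quantified this protein. Each value, from duplicates, is a log-two fold change in thermal stability relative to solvent controls.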
# [1] = compound: CCCS(=O)(=O)Nc1ccc(F)c(C(=O)c2c[nH]c3ncc(Cl)cc23)c1F
# Summary of the method: as §1
# barasertib = compound: CCN(CCCOc1ccc2c(Nc3cc(CC(=O)Nc4cccc(F)c4)[nH]n3)ncnc2c1)CCOP(=O)(O)O [barasertib]
# Summary of the method: as §1
# [2] = compound: CC[C@@H]1C(=O)N(C)c2cnc(Nc3ccc(C(=O)NC4CCN(C)CC4)cc3OC)nc2N1C1CCCC1
# Summary of the method: as §1
# volasertib = compound: CC[C@@H]1C(=O)N(C)c2cnc(Nc3ccc(C(=O)N[C@H]4CC[C@H](N5CCN(CC6CC6)CC5)CC4)cc3OC)nc2N1C(C)C [volasertib]
# Summary of the method: as §1
# [3] = compound: CCn1c(C(=O)N(C2CC2)C2CC2)cc2c3c(ncn3C)c(Nc3cc(C)n(C)n3)nc21
# Summary of the method: as §1
# [4] = compound: CCn1cc(-c2ccnc3[nH]c(-c4cccc(CN(C)C)c4)cc23)c(-c2ccc(NC(=O)N(C)C)cc2)n1
# Summary of the method: as §1
# [5] = compound: CN1CCC(CNc2ccc3ncc(-c4cccc(OC(F)(F)F)c4)n3n2)CC1
# Summary of the method: as §1
# saracatinib = compound: CN1CCN(CCOc2cc(OC3CCOCC3)c3c(Nc4c(Cl)ccc5c4OCO5)ncnc3c2)CC1 [saracatinib]
# Summary of the method: as §1
# sotrastaurin = compound: CN1CCN(c2nc(C3=C(c4c[nH]c5ccccc45)C(=O)NC3=O)c3ccccc3n2)CC1 [sotrastaurin]
# Summary of the method: as §1
# alvocidib = compound: CN1CC[C@H](c2c(O)cc(O)c3c(=O)cc(-c4ccccc4Cl)oc23)[C@H](O)C1 [alvocidib]
# Summary of the method: as §1
# Tubastatin A = compound: CN1CCc2c(c3ccccc3n2Cc2ccc(C(=O)NO)cc2)C1 [Tubastatin A]
# Summary of the method: as §1
# [6] = compound: CNC(=O)C1=CC=CC=C1NC2=NC(=NC=C2Cl)NC3=C(C=C(C=C3)N4CCOCC4)OC
# Summary of the method: as §1
# defactinib = compound: CNC(=O)c1ccc(Nc2ncc(C(F)(F)F)c(NCc3nccnc3N(C)S(C)(=O)=O)n2)cc1 [defactinib]
# Summary of the method: as §1
# [7] = compound: CNc1nc(-c2ccc3c(N)n[nH]c3c2)cc(N2C[C@@H](C(=O)NC3CCCCC3)CC[C@H]2C)n1
# Summary of the method: as §1
# encorafenib = compound: COC(=O)N[C@@H](C)CNc1nccc(-c2cn(C(C)C)nc2-c2cc(Cl)cc(NS(C)(=O)=O)c2F)n1 [encorafenib]
# Summary of the method: as §1
# [8] = compound: COC(=O)[C@H](CCSC)NC(=O)C1=C(C=C(C=C1)NC[C@H](CS)N)C2=CC=CC=C2
# Summary of the method: as §1
# alisertib = compound: COc1cc(Nc2ncc3c(n2)-c2ccc(Cl)cc2C(c2c(F)cccc2OC)=NC3)ccc1C(=O)O [alisertib]
# Summary of the method: as §1
# [9] = compound: COc1cc2nc(-c3cc(F)ccc3O)nc(N[C@@H]3CNC[C@H]3C(C)(C)O)c2cc1OC
# Summary of the method: as §1
# gefitinib = compound: COc1cc2ncnc(Nc3ccc(F)c(Cl)c3)c2cc1OCCCN1CCOCC1 [gefitinib]
# Summary of the method: as §1
Target,log2 fold change (vemurafenib),log2 fold change [1],log2 fold change (barasertib),log2 fold change [2],log2 fold change (volasertib),log2 fold change [3],log2 fold change [4],log2 fold change [5],log2 fold change (saracatinib),log2 fold change (sotrastaurin),log2 fold change (alvocidib),log2 fold change (Tubastatin A),log2 fold change [6],log2 fold change (defactinib),log2 fold change [7],log2 fold change (encorafenib),log2 fold change [8],log2 fold change (alisertib),log2 fold change [9],log2 fold change (gefitinib)
NOL6 (UniProt Q9H6R4),inactive: 0.024,inactive: 0.041,inactive: 0.012,inactive: -0.065,inactive: -0.064,inactive: 0.001,inactive: -0.033,inactive: 0.006,inactive: 0.038,inactive: 0.038,inactive: -0.052,inactive: -0.079,inactive: 0.021,inactive: 0.012,inactive: 0.041,inactive: 0.045,inactive: -0.043,inactive: -0.021,inactive: -0.019,inactive: -0.047
NUDT5 (UniProt Q9UKK9),inactive: -0.019,inactive: -0.001,inactive: -0.042,inactive: 0.043,inactive: 0.015,inactive: -0.054,inactive: -0.267,active: 0.27,inactive: -0.022,inactive: 0.034,inactive: -0.137,inactive: 0.052,inactive: -0.01,inactive: 0.072,inactive: -0.018,inactive: 0.034,inactive: 0.006,inactive: 0.004,inactive: 0.003,inactive: -0.002
NMT2 (UniProt O60551),inactive: 0.093,inactive: 0.033,inactive: -0.004,inactive: -0.038,inactive: 0.03,inactive: -0.013,inactive: -0.037,inactive: 0.029,inactive: -0.002,inactive: 0.005,inactive: -0.023,inactive: 0.064,inactive: 0.005,inactive: -0.036,inactive: 0.009,inactive: -0.014,inactive: 0.077,inactive: 0.018,inactive: -0.001,inactive: -0.017
NUB1 (UniProt Q9Y5A7),inactive: -0.007,inactive: 0.011,inactive: 0.028,inactive: -0.052,inactive: -0.056,inactive: 0,inactive: 0.008,inactive: -0.048,inactive: -0.009,inactive: 0.021,inactive: 0.033,inactive: -0.095,inactive: 0.037,inactive: -0.007,inactive: 0.014,inactive: 0.022,inactive: 0.038,inactive: -0.012,inactive: -0.004,inactive: -0.049
NUDCD3 (UniProt Q8IVD9),inactive: -0.045,inactive: 0.003,inactive: -0.016,inactive: -0.027,inactive: 0.007,inactive: 0.001,inactive: 0.034,inactive: 0.017,inactive: -0.007,inactive: -0.01,inactive: -0.005,inactive: 0.013,inactive: 0.015,inactive: 0.007,inactive: 0.016,inactive: -0.005,inactive: 0.037,inactive: -0.021,inactive: -0.001,inactive: 0.007
NT5C2 (UniProt P49902),inactive: 0.001,inactive: -0.003,inactive: -0.024,inactive: -0.006,inactive: 0.004,inactive: -0.062,inactive: -0.014,inactive: 0.058,inactive: 0.02,inactive: 0.028,inactive: 0.013,inactive: 0.041,inactive: 0.009,inactive: -0.024,inactive: -0.017,inactive: 0.013,inactive: 0.005,inactive: -0.034,inactive: -0.009,inactive: -0.004
NOA1 (UniProt Q8NC60),inactive: 0.041,inactive: -0.009,inactive: 0.043,inactive: 0.029,inactive: -0.024,inactive: -0.083,inactive: -0.229,inactive: 0.028,inactive: 0.016,inactive: 0.037,inactive: -0.016,inactive: -0.11,inactive: 0.063,inactive: -0.076,inactive: 0.063,inactive: -0.049,inactive: -0.023,inactive: 0.039,inactive: 0.023,inactive: -0.042
NRBP1 (UniProt Q9UHY1),inactive: 0.011,inactive: 0.017,inactive: 0.016,inactive: 0.025,inactive: -0.005,inactive: -0.053,inactive: -0.042,inactive: 0.086,inactive: 0.016,inactive: 0.02,inactive: -0.022,inactive: 0.018,inactive: 0.011,inactive: -0.046,inactive: 0.01,inactive: -0.026,inactive: 0.038,inactive: 0.003,inactive: 0.03,inactive: -0.005
NT5C3A (UniProt Q9H0P0),inactive: 0.012,inactive: -0.002,inactive: 0.038,inactive: 0.016,inactive: -0.079,inactive: 0.028,inactive: -0.038,inactive: -0.134,inactive: -0.005,inactive: 0.06,inactive: -0.022,inactive: -0.052,inactive: 0.029,inactive: 0.022,inactive: -0.003,inactive: 0.009,inactive: -0.056,inactive: 0.038,inactive: 0.068,inactive: 0.006
NME2 isoform 2 (UniProt P22392),inactive: -0.003,inactive: 0.003,inactive: -0.032,inactive: 0.018,inactive: 0.043,inactive: -0.034,inactive: -0.07,inactive: 0.063,inactive: 0.007,inactive: 0.008,inactive: 0.004,inactive: 0.055,inactive: -0.011,inactive: -0.014,inactive: 0.032,inactive: -0.028,inactive: -0.043,inactive: 0.016,inactive: 0.005,inactive: -0.012
NPEPPS (UniProt P55786),inactive: 0.008,inactive: 0.001,inactive: -0.017,inactive: -0.017,inactive: 0.021,inactive: -0.002,inactive: -0.023,inactive: 0.045,inactive: -0.006,inactive: 0.006,inactive: -0.002,inactive: 0.047,inactive: -0.006,inactive: -0.003,inactive: 0.003,inactive: -0.032,inactive: 0.01,inactive: 0.003,inactive: 0.002,inactive: -0.001
NUDT16L1 (UniProt Q9BRJ7),inactive: -0.02,inactive: 0.004,inactive: 0.01,inactive: -0.006,inactive: -0.027,inactive: 0.01,inactive: -0.04,inactive: 0.028,inactive: -0.042,inactive: -0.026,inactive: -0.044,inactive: 0.049,inactive: -0.015,inactive: 0.038,inactive: -0.002,inactive: 0.021,inactive: -0.075,inactive: 0.002,inactive: -0.012,inactive: -0.013
NOSTRIN (UniProt Q8IVI9),inactive: 0.091,inactive: 0.024,inactive: 0.085,inactive: -0.178,inactive: -0.029,inactive: -0.026,inactive: 0.025,inactive: -0.094,inactive: -0.001,inactive: -0.054,inactive: -0.009,active: -0.35,inactive: 0.027,inactive: 0.07,inactive: 0.061,inactive: -0.112,inactive: 0.11,inactive: -0.019,inactive: 0,inactive: 0.004
NOMO2 (UniProt Q5JPE7),inactive: 0.009,inactive: 0.008,inactive: 0.011,inactive: -0.02,inactive: -0.015,inactive: -0.024,inactive: -0.015,inactive: 0.022,inactive: 0.028,inactive: -0.006,inactive: -0.021,inactive: 0.023,inactive: 0.014,inactive: 0.03,inactive: 0.013,inactive: 0,inactive: -0.024,inactive: -0.002,inactive: -0.031,inactive: 0.021
NMRAL1 (UniProt Q9HBL8),inactive: -0.03,inactive: -0.023,inactive: 0.178,inactive: 0.045,inactive: -0.046,inactive: 0.045,inactive: -0.092,inactive: 0.053,inactive: 0.011,inactive: -0.034,inactive: 0,inactive: 0.036,inactive: -0.044,inactive: -0.003,inactive: 0.026,inactive: -0.003,active: 0.406,inactive: 0.021,inactive: 0.001,inactive: -0.002
NT5DC3 (UniProt Q86UY8),inactive: -0.004,inactive: 0.001,inactive: -0.004,inactive: 0.003,inactive: -0.015,inactive: 0.01,inactive: -0.057,inactive: 0.043,inactive: -0.017,inactive: 0.049,inactive: -0.01,inactive: 0.042,inactive: -0.02,inactive: 0.001,inactive: -0.043,inactive: -0.005,inactive: -0.012,inactive: -0.008,inactive: -0.029,inactive: -0.008

# Only log2 fold change (Tubastatin A) and log2 fold change [6] (2 entries from above):
Target | log2 fold change (Tubastatin A) | log2 fold change [6]
NUDCD3 (UniProt Q8IVD9) | inactive: 0.013 | inactive: 0.015
NT5C2 (UniProt P49902) | inactive: 0.041 | inactive: 0.009
